PMC5841803, “Retinal guanylyl cyclase activating protein 1 forms a functional dimer” (PLoS ONE, 2018)
No constants are given. Whether binding was seen depends on the method and setting. One block for each binder: values may come before it.

What was measured:
GCAP1 V77E (bovine) = GCAP1 V77E (bovine) (UniProt P46065); assay: SEC; analytical SEC, Superdex 200 HR 10/30, 100 uL of 200 uM protein, 10 mM Tris pH 7.4, 100 mM NaCl, 1 mM DTT, 4 C, with saturating Mg2+ (2 mM) or Ca2+ (2 mM); molar mass from elution time against protein standards; both purified
GCAP1 H19R (bovine) = GCAP1 H19R (bovine) (UniProt P46065); assay: as above
GCAP1 F73E (bovine) [1] = target: GCAP1 F73E (bovine) (UniProt P46065); assay: NMR 1H-15N HSQC peak widths; 15N-labelled myristoylated GCAP1 0.5 mM, 10 mM Tris pH 7.4, 1 mM DTT, 37 C, 800 MHz; Ca2+-bound state by the legend of Fig 6A; sharpness of peaks of mutant against wild type; both purified
GCAP1 F73E (bovine) [2] = target: GCAP1 F73E (bovine) (UniProt P46065); assay: SEC; analytical SEC, Superdex 200 HR 10/30, 100 uL of 200 uM protein, 10 mM Tris pH 7.4, 100 mM NaCl, 1 mM DTT, 4 C, with saturating Mg2+ (2 mM) or Ca2+ (2 mM); molar mass from elution time against protein standards; both purified

B1: GCAP1 V77E (protein, UniProt P46065 2-205)
chain: GNIMSGKSVEELSSTECHQWYKKFMTECPSGQLTLYEFRQFFGLKNLSPWASQYVEQMFETFDFNKDGYIDFMEYEAALSLVLKGKVEQKLRWYFKLYDVDGNGCIDRDELLTIIRAIRAINPCSDSTMTAEEFTDTVFSKIDVNGDGELSLEEFMEGVQKDQMLLDTLTRSLDLTRIVRRLQNGEQDEEGASGRETEAAEADG
modifications: N-terminal myristoylation
binding (GCAP1 V77E (bovine)): no binding (tested: 200 μM protein applied)

B2: GCAP1 H19R (protein, UniProt P46065 1-205)
chain: MGNIMSGKSVEELSSTECRQWYKKFMTECPSGQLTLYEFRQFFGLKNLSPWASQYVEQMFETFDFNKDGYIDFMEYVAALSLVLKGKVEQKLRWYFKLYDVDGNGCIDRDELLTIIRAIRAINPCSDSTMTAEEFTDTVFSKIDVNGDGELSLEEFMEGVQKDQMLLDTLTRSLDLTRIVRRLQNGEQDEEGASGRETEAAEADG
modifications: N-terminal myristoylation
binding (GCAP1 H19R (bovine)): no binding (tested: 200 μM protein applied)

binding (GCAP1 F73E (bovine) [1]): no binding (tested: 0.5 mM)
B3: GCAP1 F73E (protein, UniProt P46065 1-205)
chain: MGNIMSGKSVEELSSTECHQWYKKFMTECPSGQLTLYEFRQFFGLKNLSPWASQYVEQMFETFDFNKDGYIDEMEYVAALSLVLKGKVEQKLRWYFKLYDVDGNGCIDRDELLTIIRAIRAINPCSDSTMTAEEFTDTVFSKIDVNGDGELSLEEFMEGVQKDQMLLDTLTRSLDLTRIVRRLQNGEQDEEGASGRETEAAEADG
modifications: N-terminal myristoylation
binding (GCAP1 F73E (bovine) [2]): no binding (tested: 200 μM protein applied)
